PubChem BioAssay AID1053208 – Peter MacCallum Cancer Centre, 2014
Assay: 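Genes whose silencing cuts survival of bone tumour cells only with doxorubicin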 (primary screen). Cells: mouse osteosarcoma cells, early-passage culture from an engineered mouse model of fibroblastic bone tumour. Knock-down reagent: siRNA pool against mouse genes, 40 nM. Time to read-out: about 120 h (48 h before drug, then 72 h with drug). Treatment: doxorubicin 100 nM for 72 h, roughly 30-40% inhibitory dose. Detection: 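Viability read as ATP luminescence after 72 h of 100 nM doxorubicin or none, duplicate wells averaged, scaled to non-targeting siRNA, then expressed as robust z-scores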. Scale: viability z-score with doxorubicin: higher = more viable cells under doxorubicin; viability z-score without drug: higher = more viable cells with knock-down alone. Rule for the call: 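a pool counts as active when its viability z-score with doxorubicin is -2 or below and its z-score without drug lies between -2 and 2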.
This is a random part of about 17,000 reagents tested. 788 of all reagents (4.7%) were called active. 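Calls rest on z-score classes alone; an extra cut-off of viability at most 70% of control was not applied to them.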 A number with no mark means an inactive call. The numbers tell different reagents against one gene apart. Not all columns of the deposit are shown.

Against Rs1 (retinoschisis (X-linked, juvenile) 1 (human)) the deposit lists combined z-score class no change with or without drug; viability z-score with doxorubicin -1.12; viability z-score without drug -1.18.
For Ptpre (protein tyrosine phosphatase receptor type E), the entry reads combined z-score class no change with or without drug; viability z-score with doxorubicin 0.34; viability z-score without drug 0.51.
Silencing of Mrtfb (myocardin related transcription factor B) #1 gave: combined z-score class no change with or without drug; viability z-score with doxorubicin -0.45; viability z-score without drug -1.52.
For Mrtfb (myocardin related transcription factor B) #2, the values are combined z-score class no change with or without drug; viability z-score with doxorubicin 1.12; viability z-score without drug -1.52.
Knock-down of Rps27a (ribosomal protein S27A) resulted in: combined z-score class low cell count with and without drug; viability z-score with doxorubicin -7.87; viability z-score without drug -7.25.
Against 1700049L16Rik (RIKEN cDNA 1700049L16 gene), the values are combined z-score class no change with or without drug; viability z-score with doxorubicin -0.45; viability z-score without drug 1.69.
Knock-down of Shcbp1 (Shc SH2-domain binding protein 1) came out at: combined z-score class no change with or without drug; viability z-score with doxorubicin -0.45; viability z-score without drug 0.34.
For Spata33 (spermatogenesis associated 33) the deposit lists combined z-score class no change with or without drug; viability z-score with doxorubicin 0.11; viability z-score without drug -0.17.
Silencing of Dnmt1 (DNA methyltransferase 1) came out at: combined z-score class no change with or without drug; viability z-score with doxorubicin 0.22; viability z-score without drug 0.17.
Silencing of Pcmtd2 resulted in: combined z-score class no change with or without drug; viability z-score with doxorubicin 1.57; viability z-score without drug 1.18.
After knock-down of Prkch (protein kinase C, eta) the results were combined z-score class no change with or without drug; viability z-score with doxorubicin 1.12; viability z-score without drug 1.52.
After knock-down of Rin2 (Ras and Rab interactor 2), the record shows combined z-score class no change with or without drug; viability z-score with doxorubicin 1.8; viability z-score without drug 0.84.
Nop56 (NOP56 ribonucleoprotein) showed combined z-score class no change with or without drug; viability z-score with doxorubicin 0.22; viability z-score without drug -0.84.
Against Oprm1 (opioid receptor, mu 1) the deposit lists combined z-score class no change with or without drug; viability z-score with doxorubicin -1.35; viability z-score without drug -0.17.
With knock-down of Myo9b (myosin IXb), the screen gave combined z-score class high cell count with doxorubicin only; viability z-score with doxorubicin 2.02; viability z-score without drug 1.01.
After knock-down of Cers5 (ceramide synthase 5), the screen gave combined z-score class no change with or without drug; viability z-score with doxorubicin -0.45; viability z-score without drug 0.51.
With knock-down of Hexa (hexosaminidase A), the screen gave combined z-score class no change with or without drug; viability z-score with doxorubicin 0.11; viability z-score without drug 0.67.
With knock-down of Cndp1 (carnosine dipeptidase 1), the screen gave combined z-score class no change with or without drug; viability z-score with doxorubicin -0.22; viability z-score without drug -0.84.
For Stx1a (syntaxin 1A (brain)), the values are combined z-score class no change with or without drug; viability z-score with doxorubicin 0; viability z-score without drug 0.67.
After knock-down of Acbd4 (acyl-Coenzyme A binding domain containing 4), the record shows combined z-score class no change with or without drug; viability z-score with doxorubicin -0.45; viability z-score without drug -0.51.
Depletion of Gstp2 (glutathione S-transferase, pi 2) came out at: combined z-score class no change with or without drug; viability z-score with doxorubicin -0.56; viability z-score without drug -0.34.
Rpl36al (ribosomal protein L36A-like) gave combined z-score class no change with or without drug; viability z-score with doxorubicin -0.9; viability z-score without drug -1.18.
Rtcb (RNA 2',3'-cyclic phosphate and 5'-OH ligase) scored combined z-score class no change with or without drug; viability z-score with doxorubicin -0.22; viability z-score without drug 0.34.
Silencing of H2-M1 (histocompatibility 2, M region locus 1) came out at: combined z-score class no change with or without drug; viability z-score with doxorubicin 0.11; viability z-score without drug 0.17.
Against Timm8a1 (translocase of inner mitochondrial membrane 8A1), the entry reads combined z-score class no change with or without drug; viability z-score with doxorubicin 0.22; viability z-score without drug 0.84.
For Olig1 (oligodendrocyte transcription factor 1) the deposit lists combined z-score class no change with or without drug; viability z-score with doxorubicin -1.35; viability z-score without drug -0.51.
With knock-down of Or5p59 (olfactory receptor family 5 subfamily P member 59) the results were combined z-score class no change with or without drug; viability z-score with doxorubicin -1.69; viability z-score without drug -0.17.
Usp16 (ubiquitin specific peptidase 16) showed combined z-score class no change with or without drug; viability z-score with doxorubicin -0.22; viability z-score without drug 0.51.
